Results on 1 molecule are retold here after publication PMC6468289.

Chains of the proteins cited; added tags and fusions are not shown.
UniProt Q7TQN4: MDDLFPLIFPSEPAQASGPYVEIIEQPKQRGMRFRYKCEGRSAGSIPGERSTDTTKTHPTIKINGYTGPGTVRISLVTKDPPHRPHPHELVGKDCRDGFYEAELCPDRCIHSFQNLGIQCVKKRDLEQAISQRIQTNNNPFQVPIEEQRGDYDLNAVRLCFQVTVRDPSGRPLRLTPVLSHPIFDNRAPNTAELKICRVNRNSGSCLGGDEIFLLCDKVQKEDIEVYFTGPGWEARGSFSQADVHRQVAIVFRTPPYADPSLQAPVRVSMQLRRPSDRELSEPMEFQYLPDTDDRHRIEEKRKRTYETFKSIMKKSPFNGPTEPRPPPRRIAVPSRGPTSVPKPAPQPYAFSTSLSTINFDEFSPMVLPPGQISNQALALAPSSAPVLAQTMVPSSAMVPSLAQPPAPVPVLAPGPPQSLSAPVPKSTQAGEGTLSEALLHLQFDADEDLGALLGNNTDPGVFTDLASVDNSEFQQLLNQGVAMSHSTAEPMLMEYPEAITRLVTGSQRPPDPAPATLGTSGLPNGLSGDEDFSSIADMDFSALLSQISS

These are yes or no findings as the source states them, for the method shown. In cells and extracts the contact can be indirect. Some results given as binding are weak or reduced against the parent protein; the word gives no strength.

This assay addresses NF-κB p65 (rat (endogenous in VSMCs)) (UniProt Q7TQN4). Kind of assay: co-IP; nuclear fraction of VSMCs treated with TNF-α for 1 h after infection with Ad-Vector or Ad-circ-Sirt1, with and without EX527; lysates precleared with Protein A/G PLUS-Agarose, immunoprecipitated with indicated antibodies at 4°C overnight, Western blot.

B1: SIRT1 (protein, UniProt A0A0G2JZ79 1-741)
chain: MADEAALALQAGGSPSAAAAMEAASQPADEPLRKRPRRDGPGLGRSPGEPSAAAAAAAAAAGCEAASAAAPAALWREAAGAAAASAEREAPATAAAGDGDNGPGLRREPRAADDFDDDEGEEEDEAAAAAAAAIGYRDNLLLADEIITNGFHSCESDDDDRASHASSSDWTPRPRIGPYTFVQQHLMIGTDPRTILKDLLPETIPPPELDDMTLWQIVINILSEPPKRKKRKDINTIEDAVKLLQECKKIIVLTGAGVSVSCGIPDFRSRDGIYARLAVDFPDLPDPQAMFDIEYFRKDPRPFFKFAKEIYPGQFQPSLCHKFIALSDKEGKLLRNYTQNIDTLEQVAGIQRIIQCHGSFATASCLICKYKVDCEAVRGDIFNQVVPRCPRCPADEPLAIMKPEIVFFGENLPEQFHRAMKYDKDEVDLLIVIGSSLKVRPVALIPSSIPHEVPQILINREPLPHLHFDVELLGDCDVIINELCHRLGGEYAKLCCNPVKLSEITEKPPRTQKELVHLSELPPTPLHISEDSSSPERTVPQDSSVIATLVDQTIKNKVDDLEVSEPKSCVEEKSQEVQTYRNVESINVENPDFKAVGSSTGDKNERTSVAETVRKCWPNRLAKEQISKRLDGNQYLFVPPNRYIFHGAEVYSDSEDDALSSSSCGSNSDSGTCQSPSLEEPLEDESEIEEFYNGLEDDADRPECAGGSGADGGDQEAVNEAIAMKQELTDVNCTPDKSEHY
Take B1: the binding entry is listed as “binds”.
